# From article PMC7819943, “Rice protein-binding microarrays: a tool to detect cis-acting elements near promoter regions in rice”
# Some of the results follow.
# Target: T1, OsSMF1 (Oryza sativa, UniProt Q6ZLB0 1-436)
# T1 sequence: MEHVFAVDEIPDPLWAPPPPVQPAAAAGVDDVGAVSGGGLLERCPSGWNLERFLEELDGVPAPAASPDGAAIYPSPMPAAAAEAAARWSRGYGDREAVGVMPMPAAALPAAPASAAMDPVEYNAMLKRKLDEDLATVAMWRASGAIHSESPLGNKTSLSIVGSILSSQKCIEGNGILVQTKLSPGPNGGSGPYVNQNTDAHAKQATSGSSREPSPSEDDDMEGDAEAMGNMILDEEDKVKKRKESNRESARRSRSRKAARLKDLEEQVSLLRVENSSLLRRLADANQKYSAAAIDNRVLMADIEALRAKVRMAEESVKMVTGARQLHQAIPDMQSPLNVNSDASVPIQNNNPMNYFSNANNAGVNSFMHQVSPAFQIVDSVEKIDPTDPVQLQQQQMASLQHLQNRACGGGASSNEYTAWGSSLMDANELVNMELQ
# Assay: protein-binding microarray (RPBM); PBS, 2% BSA, 51.3 ng/ul salmon testes DNA, 50 uM zinc acetate, 200 nM TF, 25 C, 1 h; high values mean tight binding
# Conditions: protein: recombinant; tags: N-terminal polyhistidine and DsRed monomer fusion (pET32a); chain copies: 2; label: CyDye5-dUTP incorporated in the synthesized complementary strand; 3' TTTTT single-stranded linker to array surface; dsDNA, one strand shown
# Procedure, shortened: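 Transcription factors were made in E. coli BL21-CodonPlus as N-terminal fusions to a polyhistidine tag and DsRed, then purified on Ni–NTA. After primer extension with Cy5-dUTP and blocking with 2% BSA, a custom Agilent array was exposed for 1 h at 25 °C to 200 nM protein in PBS, 2% BSA, salmon testes DNA and 50 µM zinc acetate. Washed arrays were scanned on an Axon 4000B, and the binding signal is per-feature fluorescence intensity in arbitrary units.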
row,Sequence,binding signal
1,AGAATTTTCCATATCTTAAGTCCATGCATGCCGTCAGCAGCGGAGTCACCTAGTGCAG,5810 fluorescence intensity (a.u.)
2,TTGACGGCTCTGACTCGTGCTGACGTGGCACGTGGCGAACCGGAGTCACCTAGTGCAG,28700 fluorescence intensity (a.u.)
3,GACTGTATATATCCCGTAGCCGGCGTCGTCACCCTCGTTGCGGAGTCACCTAGTGCAG,4600 fluorescence intensity (a.u.)
4,TAGAAAATTGTATTTAAAGTATATGTGAGTAGTGTCTATCCGGAGTCACCTAGTGCAG,28600 fluorescence intensity (a.u.)
5,ACCGCCGCGCTCGCACGCCGCCTCCGTCGGCCGCCGTGGCCGGAGTCACCTAGTGCAG,3660 fluorescence intensity (a.u.)
6,GCCGGTGAGCATCCCTCCCTACCCACACCTCATCAGGTATCGGAGTCACCTAGTGCAG,3160 fluorescence intensity (a.u.)
7,TATACACGCAGAGAGATAATGACAGCGTGGCCATGGACTTCGGAGTCACCTAGTGCAG,4420 fluorescence intensity (a.u.)
8,TTCTCCGGCCGCCGCCGCCATCGCCGCCGGCCGTAGCATGCGGAGTCACCTAGTGCAG,56000 fluorescence intensity (a.u.)
9,GTGCGACGATTGCTGAGCGAGCACGCCACGGGGTGGGGCGCGGAGTCACCTAGTGCAG,4040 fluorescence intensity (a.u.)
10,ATTTAAAATAGTTTTGTACGCATGCGTGACGCTGACGTCACGGAGTCACCTAGTGCAG,15400 fluorescence intensity (a.u.)
11,AAGCAGGATCCGCGGCGAGCAAGCCTGCGACATCGCCTTTCGGAGTCACCTAGTGCAG,4490 fluorescence intensity (a.u.)
12,ACTCCTAGCTTGGCACGTGACCTATGCGTGATCCGCAACCCGGAGTCACCTAGTGCAG,3220 fluorescence intensity (a.u.)
13,CATATCCATGTCATCCTCATCCTCTGCCCCTTGTTCATCCCGGAGTCACCTAGTGCAG,7200 fluorescence intensity (a.u.)
14,GAGAGGAGGAGGAAGAGGGGCTCTAGTTGAAGAGAGGGAGCGGAGTCACCTAGTGCAG,3210 fluorescence intensity (a.u.)
15,GTAGCGTCCCTATTTAACGTATCCACACGCATCACAAGATCGGAGTCACCTAGTGCAG,4750 fluorescence intensity (a.u.)
16,TTGTAAATGATATGTCATGTGTGTATGATGTTTAAAATACCGGAGTCACCTAGTGCAG,3790 fluorescence intensity (a.u.)
17,AAACCTGATCAGTTGGACGAGGTAAACAAGTGGTGGATATCGGAGTCACCTAGTGCAG,28700 fluorescence intensity (a.u.)
18,AAAACCACACGCATTTTGACACTTAGCACTTGATTACATACGGAGTCACCTAGTGCAG,5320 fluorescence intensity (a.u.)
19,CATCAATCCTCTGCTTGGTATGTTGCTGTCACTCCCTGTGCGGAGTCACCTAGTGCAG,3900 fluorescence intensity (a.u.)
20,AATCTGGATAGATGCGCTGACGTAGTGACGTGGTTAAATTCGGAGTCACCTAGTGCAG,14600 fluorescence intensity (a.u.)
21,TGCGCATGGTAGGAAGGTTATGACGTGTTTGTATTCTCTTCGGAGTCACCTAGTGCAG,8550 fluorescence intensity (a.u.)

# Reformatted with bars between the fields: entries from further up.
row | Sequence | binding signal
14 | GAGAGGAGGAGGAAGAGGGGCTCTAGTTGAAGAGAGGGAGCGGAGTCACCTAGTGCAG | 3210 fluorescence intensity (a.u.)
15 | GTAGCGTCCCTATTTAACGTATCCACACGCATCACAAGATCGGAGTCACCTAGTGCAG | 4750 fluorescence intensity (a.u.)

# Following part:

row,Sequence,binding signal
1,TCTGTGTTTCCTCTGTTTGAGCTGACAATACGTCTGCTATCGGAGTCACCTAGTGCAG,3230 fluorescence intensity (a.u.)
2,ACATGACGAGAAAAGTTGTCATGGTAGTCCAAACCGCAACCGGAGTCACCTAGTGCAG,4260 fluorescence intensity (a.u.)
3,GAGCCTAGTCAACTCGCCCACGTGGACCAATTGTTCATCGCGGAGTCACCTAGTGCAG,12800 fluorescence intensity (a.u.)
4,TTAGATCACCTTTTAACCAATAATCGTAACTTTGTGACACCGGAGTCACCTAGTGCAG,37000 fluorescence intensity (a.u.)
5,GCTCGCCATGATGGCCGGTGTGGTAGCTTGGATGGTTAAACGGAGTCACCTAGTGCAG,4980 fluorescence intensity (a.u.)
6,TTTTGGCACGTGCGTGGCTACTCGATCGATCTCCCTATTTCGGAGTCACCTAGTGCAG,6830 fluorescence intensity (a.u.)
7,ATGCAACGTAAGCGCTACGTAGGACTAAGACTGGGTCAATCGGAGTCACCTAGTGCAG,5320 fluorescence intensity (a.u.)
8,CCCATCGGTGTCATGTTTAGGCGCGGTGTCTGCACGCGTGCGGAGTCACCTAGTGCAG,3310 fluorescence intensity (a.u.)
9,TAGAGCGCCACATGACATCTTAGAAGCGTTTGTAGGAGTACGGAGTCACCTAGTGCAG,30400 fluorescence intensity (a.u.)
10,CAGGCAATCCACGCCGTCCATCTCCGCGGCCGCGTCACACCGGAGTCACCTAGTGCAG,10300 fluorescence intensity (a.u.)
11,GCCCTCGCGGCCGCCCGCGCGCGCGTCATCGTCGTCTCGACGGAGTCACCTAGTGCAG,3850 fluorescence intensity (a.u.)
12,CCGAACTCCACCTCCCAGTTTCCCACGGGACCGTCTCCCACGGAGTCACCTAGTGCAG,3850 fluorescence intensity (a.u.)
13,TTGTTGTCAACTCGCTGACTATTCCTCTCTTAGTTGGCATCGGAGTCACCTAGTGCAG,5270 fluorescence intensity (a.u.)
14,CTACCGTGATCCTGACACCTACCGCATGGTTCACAATCCCCGGAGTCACCTAGTGCAG,3790 fluorescence intensity (a.u.)
15,GAGTGGAGAAGGCGCGCCACCGTCGCTAGAGCCGATGCTGCGGAGTCACCTAGTGCAG,47700 fluorescence intensity (a.u.)
16,CTAACTTTTCGGCTGGTAGGCCCAACGGGAGATTGCCATCCGGAGTCACCTAGTGCAG,3760 fluorescence intensity (a.u.)
17,CAAAGTATACGTGTTTTCACCTCAATTAATTGTGCTCATTCGGAGTCACCTAGTGCAG,3830 fluorescence intensity (a.u.)
18,AATCGCCCGCTGCAGGAGTCAAGTCTTCAGGCTTAGCTCGCGGAGTCACCTAGTGCAG,37800 fluorescence intensity (a.u.)
19,AGAAGAGGTGATGTATAAAACATGTCACGATTTAATATCTCGGAGTCACCTAGTGCAG,4070 fluorescence intensity (a.u.)
20,GCTGAGCAGGAGAGGGGCGCCGATCTCCATCCGGCGAGCACGGAGTCACCTAGTGCAG,5450 fluorescence intensity (a.u.)
21,TCATTGCAGATACTGGTGATGGTGGCAACTCGACTTATGCCGGAGTCACCTAGTGCAG,3650 fluorescence intensity (a.u.)

# Exported as tab-separated lines: part of the list above.
row	Sequence	binding signal
7	ATGCAACGTAAGCGCTACGTAGGACTAAGACTGGGTCAATCGGAGTCACCTAGTGCAG	5320 fluorescence intensity (a.u.)
13	TTGTTGTCAACTCGCTGACTATTCCTCTCTTAGTTGGCATCGGAGTCACCTAGTGCAG	5270 fluorescence intensity (a.u.)
